According to patent US20050265970A1:
No constants are given. Whether binding was seen depends on the method and setting. For some assays here: In cells and extracts the contact can be indirect. Some results given as binding are weak or reduced against the parent protein; the word gives no strength. Tags and fused reporters may be left off the sequences shown.

Sequences of proteins named here, by UniProt entry; tags and fusion partners are left off. A change or cut given only in a name is not applied to a line headed by its entry. Residues count along the entry.
UniProt Q99683: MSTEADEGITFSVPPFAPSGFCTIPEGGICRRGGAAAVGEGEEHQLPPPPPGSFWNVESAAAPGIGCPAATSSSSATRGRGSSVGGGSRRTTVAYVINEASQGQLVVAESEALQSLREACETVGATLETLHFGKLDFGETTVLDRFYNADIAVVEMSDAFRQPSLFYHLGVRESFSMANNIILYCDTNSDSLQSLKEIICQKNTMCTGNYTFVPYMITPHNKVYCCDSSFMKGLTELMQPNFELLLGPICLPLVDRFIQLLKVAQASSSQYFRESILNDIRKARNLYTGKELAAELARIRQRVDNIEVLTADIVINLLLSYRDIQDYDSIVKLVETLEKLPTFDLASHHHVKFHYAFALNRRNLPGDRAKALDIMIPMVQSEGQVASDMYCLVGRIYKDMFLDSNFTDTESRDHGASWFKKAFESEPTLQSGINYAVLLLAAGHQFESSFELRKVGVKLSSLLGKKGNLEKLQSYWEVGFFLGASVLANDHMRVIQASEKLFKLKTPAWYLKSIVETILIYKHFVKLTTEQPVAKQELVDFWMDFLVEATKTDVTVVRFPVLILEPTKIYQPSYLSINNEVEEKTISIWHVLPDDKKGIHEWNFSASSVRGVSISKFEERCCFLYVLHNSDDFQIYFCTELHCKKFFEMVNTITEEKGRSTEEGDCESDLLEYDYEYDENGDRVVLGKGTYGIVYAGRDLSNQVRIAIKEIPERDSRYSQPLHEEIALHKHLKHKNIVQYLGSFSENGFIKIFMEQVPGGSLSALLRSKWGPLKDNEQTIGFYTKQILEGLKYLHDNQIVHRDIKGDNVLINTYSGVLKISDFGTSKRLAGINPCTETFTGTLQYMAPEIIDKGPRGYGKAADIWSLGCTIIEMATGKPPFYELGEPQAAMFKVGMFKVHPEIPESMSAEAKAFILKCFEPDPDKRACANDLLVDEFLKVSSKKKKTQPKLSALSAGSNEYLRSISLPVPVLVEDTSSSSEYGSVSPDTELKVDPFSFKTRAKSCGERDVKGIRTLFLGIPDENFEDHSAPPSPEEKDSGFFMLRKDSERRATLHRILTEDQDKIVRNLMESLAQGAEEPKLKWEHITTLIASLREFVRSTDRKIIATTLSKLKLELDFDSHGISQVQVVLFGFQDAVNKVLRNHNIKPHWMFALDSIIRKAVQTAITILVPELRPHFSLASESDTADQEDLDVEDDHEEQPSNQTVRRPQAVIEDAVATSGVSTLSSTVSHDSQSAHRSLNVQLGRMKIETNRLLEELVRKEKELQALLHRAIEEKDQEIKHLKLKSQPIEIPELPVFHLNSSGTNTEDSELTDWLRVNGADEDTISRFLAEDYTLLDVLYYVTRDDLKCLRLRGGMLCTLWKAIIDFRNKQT
N-ASK1 (amino acids 1 to 756 of human ASK1), in vitro translated: residues 1-756 of Q99683
C-ASK1 (amino acids 648 to 1375 of human ASK1), in vitro translated: residues 648-1374 of Q99683
UniProt O08648: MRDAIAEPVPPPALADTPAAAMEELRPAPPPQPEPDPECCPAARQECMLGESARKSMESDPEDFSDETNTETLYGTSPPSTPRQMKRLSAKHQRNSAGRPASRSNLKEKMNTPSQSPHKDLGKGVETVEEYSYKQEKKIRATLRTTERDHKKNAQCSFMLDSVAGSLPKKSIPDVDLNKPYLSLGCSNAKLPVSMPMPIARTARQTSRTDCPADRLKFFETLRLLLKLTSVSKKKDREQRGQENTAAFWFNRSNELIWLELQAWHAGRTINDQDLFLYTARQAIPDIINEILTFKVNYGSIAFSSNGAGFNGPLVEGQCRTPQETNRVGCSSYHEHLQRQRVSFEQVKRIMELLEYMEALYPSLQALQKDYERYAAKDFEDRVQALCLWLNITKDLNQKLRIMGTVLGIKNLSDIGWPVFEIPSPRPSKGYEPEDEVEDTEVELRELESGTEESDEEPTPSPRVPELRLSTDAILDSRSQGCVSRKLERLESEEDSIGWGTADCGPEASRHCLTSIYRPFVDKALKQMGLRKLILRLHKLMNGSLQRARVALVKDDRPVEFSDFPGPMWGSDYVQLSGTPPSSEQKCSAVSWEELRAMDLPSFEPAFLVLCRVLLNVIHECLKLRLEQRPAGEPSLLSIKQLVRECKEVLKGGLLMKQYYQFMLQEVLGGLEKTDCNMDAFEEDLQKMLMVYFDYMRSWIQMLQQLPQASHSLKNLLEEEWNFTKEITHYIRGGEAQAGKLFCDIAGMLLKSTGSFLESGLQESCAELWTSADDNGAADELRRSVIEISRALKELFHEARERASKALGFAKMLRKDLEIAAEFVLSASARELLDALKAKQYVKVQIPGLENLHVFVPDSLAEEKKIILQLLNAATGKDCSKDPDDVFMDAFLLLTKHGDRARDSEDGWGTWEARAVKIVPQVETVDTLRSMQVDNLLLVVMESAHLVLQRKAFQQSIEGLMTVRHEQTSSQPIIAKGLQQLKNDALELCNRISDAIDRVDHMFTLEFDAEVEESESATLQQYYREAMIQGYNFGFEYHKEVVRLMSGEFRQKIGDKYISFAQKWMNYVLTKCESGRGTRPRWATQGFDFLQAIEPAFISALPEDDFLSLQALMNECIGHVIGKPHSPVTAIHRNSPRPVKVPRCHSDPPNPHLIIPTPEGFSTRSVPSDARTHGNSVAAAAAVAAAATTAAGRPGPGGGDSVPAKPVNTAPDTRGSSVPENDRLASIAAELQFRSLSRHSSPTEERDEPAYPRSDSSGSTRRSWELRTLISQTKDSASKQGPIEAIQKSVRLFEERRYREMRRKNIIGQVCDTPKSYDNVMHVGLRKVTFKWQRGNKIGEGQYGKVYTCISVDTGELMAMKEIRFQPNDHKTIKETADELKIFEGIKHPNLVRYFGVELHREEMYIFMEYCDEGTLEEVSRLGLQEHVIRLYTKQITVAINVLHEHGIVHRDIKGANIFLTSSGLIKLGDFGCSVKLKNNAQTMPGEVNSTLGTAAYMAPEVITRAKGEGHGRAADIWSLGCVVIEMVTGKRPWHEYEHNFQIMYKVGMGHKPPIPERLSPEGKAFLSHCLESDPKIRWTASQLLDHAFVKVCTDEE

T1: endogenous MKK7 (JNKK2) of 3DO cells (UniProt Q8CE90)
T1 sequence (looked up): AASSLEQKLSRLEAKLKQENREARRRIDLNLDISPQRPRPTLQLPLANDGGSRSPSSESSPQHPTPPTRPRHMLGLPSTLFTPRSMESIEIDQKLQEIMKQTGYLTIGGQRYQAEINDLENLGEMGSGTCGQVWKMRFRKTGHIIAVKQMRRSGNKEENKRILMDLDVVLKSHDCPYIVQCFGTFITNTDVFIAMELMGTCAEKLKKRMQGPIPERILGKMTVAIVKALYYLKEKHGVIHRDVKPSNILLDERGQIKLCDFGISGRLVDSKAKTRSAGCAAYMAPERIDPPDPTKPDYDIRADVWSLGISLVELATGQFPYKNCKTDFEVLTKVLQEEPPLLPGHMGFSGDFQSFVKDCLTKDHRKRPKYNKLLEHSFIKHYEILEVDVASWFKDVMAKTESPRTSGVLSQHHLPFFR


How the values were obtained:
[1] = target: ASK1, 35S-labeled in vitro translated full-length human ASK1 (human) (UniProt Q99683); assay: GST pull-down
[2] = target: ASK1, 35S-labeled in vitro translated full-length human ASK1 (human) (UniProt Q99683); assay: GST pull-down of 35S-labeled in vitro translated protein
[3] = target: C-ASK1 (amino acids 648 to 1375 of human ASK1), in vitro translated (human) (UniProt Q99683); assay: as above
[4] = target: MEKK4, 35S-labeled in vitro translated full-length MEKK4 (murine) (UniProt O08648); assay: as above
[5] = target: N-ASK1 (amino acids 1 to 756 of human ASK1), in vitro translated (human) (UniProt Q99683); assay: as above
[6] = target: JNKK2 carboxy-terminal deletion made with NotI-linearized pBS-JNKK2 (human) (UniProt O14733); assay: GST pull-down of 35S-labeled in vitro translated JNKK2 C-terminal deletions
[7] = target: T1, endogenous MKK7 (JNKK2) of 3DO cells; assay: immunoprecipitation followed by Western blot, 3DO cells
[8] = target: T1, endogenous MKK7 (JNKK2) of 3DO cells; assay: co-immunoprecipitation from P/I-treated 3DO cells with anti-Gadd45β monoclonal or anti-MKK7 antibodies

Row | binding [1] | binding [2] | binding [3] | binding [4] | binding [5] | binding [6] | binding [7] | binding [8] | Binder
1 | binds | binds | binds | binds | binds | binds | – | – | GST-Gadd45β (full-length murine Gadd45β directly fused to GST) (protein, UniProt P22339 1-160, looked up, not shown: a dimerising Fc or GST) MTLEELVASDNAVQKMQAVTAAVEQLLVAAQRQDRLTVGVYEAAKLMNVDPDSVVLCLLAIDEEEEDDIALQIHFTLIQSFCCDNDIDIVRVSGMQRLAQLLGEPAETLGTTEARDLHCLLVTNCHTDSWKSQGLVEVASYCEESRGNNQWVPYISLEER
2 | – | – | – | – | – | – | binds | binds | Gadd45β in cells (untagged full-length: endogenous in 3DO cells and MEFs, or stably expressed in 3DO-IκBαM-Gadd45β clones) (protein, UniProt P22339 1-160, looked up) MTLEELVASDNAVQKMQAVTAAVEQLLVAAQRQDRLTVGVYEAAKLMNVDPDSVVLCLLAIDEEEEDDIALQIHFTLIQSFCCDNDIDIVRVSGMQRLAQLLGEPAETLGTTEARDLHCLLVTNCHTDSWKSQGLVEVASYCEESRGNNQWVPYISLEER
